Test results taken from the supplement of paper PMC12067093, “Discovery and optimisation of a covalent ligand for TRIM25 and its application to targeted protein ubiquitination” (Chemical Science, 2025).
Some of the results follow.

By UniProt entry, the sequences of proteins in these tests, tags left out. Where a name states a change or a piece, a line headed by the entry shows the natural chain unless it says otherwise.
UniProt O00410: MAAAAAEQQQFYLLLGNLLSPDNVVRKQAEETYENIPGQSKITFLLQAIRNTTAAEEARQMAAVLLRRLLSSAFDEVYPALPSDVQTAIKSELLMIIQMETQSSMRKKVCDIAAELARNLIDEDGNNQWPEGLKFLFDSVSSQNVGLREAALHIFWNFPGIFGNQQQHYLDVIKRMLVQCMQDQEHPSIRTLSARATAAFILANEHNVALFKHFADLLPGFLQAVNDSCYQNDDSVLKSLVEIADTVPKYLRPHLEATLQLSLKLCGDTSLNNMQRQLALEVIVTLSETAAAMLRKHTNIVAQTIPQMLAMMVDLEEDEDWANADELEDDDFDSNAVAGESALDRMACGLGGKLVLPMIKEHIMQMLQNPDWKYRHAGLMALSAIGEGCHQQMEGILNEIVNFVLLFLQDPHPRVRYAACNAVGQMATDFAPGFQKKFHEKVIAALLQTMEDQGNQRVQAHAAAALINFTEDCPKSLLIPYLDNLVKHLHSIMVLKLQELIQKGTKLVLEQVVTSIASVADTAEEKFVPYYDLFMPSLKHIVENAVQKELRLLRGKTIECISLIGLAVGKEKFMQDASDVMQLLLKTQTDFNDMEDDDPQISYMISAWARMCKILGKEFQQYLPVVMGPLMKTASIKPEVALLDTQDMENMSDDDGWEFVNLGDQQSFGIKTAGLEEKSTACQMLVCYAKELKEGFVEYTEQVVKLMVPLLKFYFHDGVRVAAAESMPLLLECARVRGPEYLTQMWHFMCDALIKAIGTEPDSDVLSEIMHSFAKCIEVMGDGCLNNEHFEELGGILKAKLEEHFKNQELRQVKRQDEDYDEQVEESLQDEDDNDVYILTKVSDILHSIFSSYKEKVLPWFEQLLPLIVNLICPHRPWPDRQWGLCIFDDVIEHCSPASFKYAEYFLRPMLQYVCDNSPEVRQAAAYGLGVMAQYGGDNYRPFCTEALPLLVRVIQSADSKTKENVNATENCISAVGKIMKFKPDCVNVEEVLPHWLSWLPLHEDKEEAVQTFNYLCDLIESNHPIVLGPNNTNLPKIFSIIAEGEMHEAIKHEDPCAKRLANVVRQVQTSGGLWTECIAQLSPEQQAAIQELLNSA
UniProt Q8N201, whole entry, looked up: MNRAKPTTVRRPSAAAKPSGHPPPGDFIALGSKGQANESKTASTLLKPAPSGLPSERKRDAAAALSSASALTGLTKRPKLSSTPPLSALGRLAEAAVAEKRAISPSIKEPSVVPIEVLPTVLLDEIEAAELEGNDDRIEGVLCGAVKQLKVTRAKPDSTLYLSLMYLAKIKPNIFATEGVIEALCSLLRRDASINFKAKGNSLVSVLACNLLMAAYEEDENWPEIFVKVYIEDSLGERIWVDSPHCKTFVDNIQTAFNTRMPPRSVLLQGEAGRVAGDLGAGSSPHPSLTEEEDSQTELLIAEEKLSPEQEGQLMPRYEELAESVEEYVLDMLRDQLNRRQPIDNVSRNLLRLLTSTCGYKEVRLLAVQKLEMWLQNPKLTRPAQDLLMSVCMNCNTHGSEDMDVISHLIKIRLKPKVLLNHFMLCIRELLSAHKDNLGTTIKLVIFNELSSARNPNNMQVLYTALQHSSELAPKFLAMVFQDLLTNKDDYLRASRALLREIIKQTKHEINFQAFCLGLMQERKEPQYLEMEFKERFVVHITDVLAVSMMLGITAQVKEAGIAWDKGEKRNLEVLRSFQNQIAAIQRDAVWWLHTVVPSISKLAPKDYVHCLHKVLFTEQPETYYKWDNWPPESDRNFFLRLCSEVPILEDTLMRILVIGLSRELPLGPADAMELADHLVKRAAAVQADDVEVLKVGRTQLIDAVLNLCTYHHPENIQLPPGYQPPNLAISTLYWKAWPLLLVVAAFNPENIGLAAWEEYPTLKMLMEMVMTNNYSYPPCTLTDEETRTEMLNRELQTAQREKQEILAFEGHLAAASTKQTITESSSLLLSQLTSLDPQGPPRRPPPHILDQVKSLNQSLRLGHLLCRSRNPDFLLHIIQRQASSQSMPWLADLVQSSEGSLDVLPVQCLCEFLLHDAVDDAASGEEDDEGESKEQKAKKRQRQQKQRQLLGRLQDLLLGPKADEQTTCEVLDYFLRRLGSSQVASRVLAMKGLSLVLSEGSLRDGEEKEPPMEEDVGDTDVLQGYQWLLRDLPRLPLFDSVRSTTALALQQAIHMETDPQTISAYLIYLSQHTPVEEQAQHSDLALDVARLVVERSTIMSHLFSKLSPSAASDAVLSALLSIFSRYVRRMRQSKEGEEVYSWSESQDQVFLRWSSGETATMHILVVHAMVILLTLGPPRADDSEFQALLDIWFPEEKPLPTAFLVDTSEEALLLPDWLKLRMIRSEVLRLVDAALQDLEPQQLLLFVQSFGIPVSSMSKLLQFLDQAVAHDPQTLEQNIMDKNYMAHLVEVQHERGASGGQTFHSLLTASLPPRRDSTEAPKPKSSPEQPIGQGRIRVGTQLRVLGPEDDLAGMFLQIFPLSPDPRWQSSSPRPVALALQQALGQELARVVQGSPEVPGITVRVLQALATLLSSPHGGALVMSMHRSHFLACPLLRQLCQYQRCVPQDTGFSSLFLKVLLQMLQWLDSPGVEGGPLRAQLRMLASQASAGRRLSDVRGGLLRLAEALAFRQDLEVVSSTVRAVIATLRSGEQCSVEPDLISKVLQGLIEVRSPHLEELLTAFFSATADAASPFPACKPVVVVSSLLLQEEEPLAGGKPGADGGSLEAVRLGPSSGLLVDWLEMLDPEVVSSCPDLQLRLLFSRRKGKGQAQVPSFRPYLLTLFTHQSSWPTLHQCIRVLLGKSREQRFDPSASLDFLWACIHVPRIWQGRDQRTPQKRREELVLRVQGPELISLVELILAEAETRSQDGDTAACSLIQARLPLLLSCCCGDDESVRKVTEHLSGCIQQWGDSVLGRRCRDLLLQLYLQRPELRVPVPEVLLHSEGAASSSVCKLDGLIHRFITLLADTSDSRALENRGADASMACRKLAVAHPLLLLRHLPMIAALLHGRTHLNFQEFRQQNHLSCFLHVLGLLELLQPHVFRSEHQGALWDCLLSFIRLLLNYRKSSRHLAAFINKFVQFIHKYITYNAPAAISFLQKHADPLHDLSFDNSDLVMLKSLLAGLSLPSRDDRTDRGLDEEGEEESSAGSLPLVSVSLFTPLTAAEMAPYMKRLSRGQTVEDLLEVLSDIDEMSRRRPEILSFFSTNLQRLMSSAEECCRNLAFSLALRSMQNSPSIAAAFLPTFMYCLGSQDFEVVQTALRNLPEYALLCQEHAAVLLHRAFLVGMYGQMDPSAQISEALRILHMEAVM
UniProt P06213, whole entry, looked up: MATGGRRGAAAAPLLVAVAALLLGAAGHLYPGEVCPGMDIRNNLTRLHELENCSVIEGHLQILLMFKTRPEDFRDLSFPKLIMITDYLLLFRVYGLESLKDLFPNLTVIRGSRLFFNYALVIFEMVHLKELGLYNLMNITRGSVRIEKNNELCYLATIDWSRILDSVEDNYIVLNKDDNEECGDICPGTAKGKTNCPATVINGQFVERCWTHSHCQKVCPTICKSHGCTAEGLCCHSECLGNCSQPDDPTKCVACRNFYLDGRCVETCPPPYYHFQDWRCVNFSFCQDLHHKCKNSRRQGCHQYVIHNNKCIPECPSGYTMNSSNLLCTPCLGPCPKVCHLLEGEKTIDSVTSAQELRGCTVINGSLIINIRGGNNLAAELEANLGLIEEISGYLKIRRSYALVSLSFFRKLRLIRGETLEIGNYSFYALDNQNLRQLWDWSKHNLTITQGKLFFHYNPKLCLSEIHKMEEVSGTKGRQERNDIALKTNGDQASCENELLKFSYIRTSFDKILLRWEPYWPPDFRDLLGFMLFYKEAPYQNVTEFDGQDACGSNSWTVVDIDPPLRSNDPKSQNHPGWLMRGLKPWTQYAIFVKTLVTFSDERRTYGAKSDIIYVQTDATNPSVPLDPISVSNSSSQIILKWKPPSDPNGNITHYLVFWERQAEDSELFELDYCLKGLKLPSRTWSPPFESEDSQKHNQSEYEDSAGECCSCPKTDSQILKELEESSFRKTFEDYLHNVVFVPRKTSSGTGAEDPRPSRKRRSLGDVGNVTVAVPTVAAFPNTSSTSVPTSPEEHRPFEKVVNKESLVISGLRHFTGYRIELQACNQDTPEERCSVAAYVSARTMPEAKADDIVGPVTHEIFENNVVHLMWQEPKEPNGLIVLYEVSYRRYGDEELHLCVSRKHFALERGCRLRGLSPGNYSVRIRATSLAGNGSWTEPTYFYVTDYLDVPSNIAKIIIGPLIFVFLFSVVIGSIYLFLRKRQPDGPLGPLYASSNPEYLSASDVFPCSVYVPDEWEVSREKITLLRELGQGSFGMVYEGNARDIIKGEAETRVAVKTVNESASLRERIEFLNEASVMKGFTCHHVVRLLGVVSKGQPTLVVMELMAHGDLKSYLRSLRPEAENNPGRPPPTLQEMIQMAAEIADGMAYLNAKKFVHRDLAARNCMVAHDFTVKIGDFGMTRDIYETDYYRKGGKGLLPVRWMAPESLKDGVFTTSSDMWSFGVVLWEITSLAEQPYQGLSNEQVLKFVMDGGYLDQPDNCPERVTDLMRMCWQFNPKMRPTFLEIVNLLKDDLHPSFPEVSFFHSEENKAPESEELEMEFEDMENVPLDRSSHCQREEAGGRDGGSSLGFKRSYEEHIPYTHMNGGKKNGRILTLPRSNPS
UniProt Q9Y616: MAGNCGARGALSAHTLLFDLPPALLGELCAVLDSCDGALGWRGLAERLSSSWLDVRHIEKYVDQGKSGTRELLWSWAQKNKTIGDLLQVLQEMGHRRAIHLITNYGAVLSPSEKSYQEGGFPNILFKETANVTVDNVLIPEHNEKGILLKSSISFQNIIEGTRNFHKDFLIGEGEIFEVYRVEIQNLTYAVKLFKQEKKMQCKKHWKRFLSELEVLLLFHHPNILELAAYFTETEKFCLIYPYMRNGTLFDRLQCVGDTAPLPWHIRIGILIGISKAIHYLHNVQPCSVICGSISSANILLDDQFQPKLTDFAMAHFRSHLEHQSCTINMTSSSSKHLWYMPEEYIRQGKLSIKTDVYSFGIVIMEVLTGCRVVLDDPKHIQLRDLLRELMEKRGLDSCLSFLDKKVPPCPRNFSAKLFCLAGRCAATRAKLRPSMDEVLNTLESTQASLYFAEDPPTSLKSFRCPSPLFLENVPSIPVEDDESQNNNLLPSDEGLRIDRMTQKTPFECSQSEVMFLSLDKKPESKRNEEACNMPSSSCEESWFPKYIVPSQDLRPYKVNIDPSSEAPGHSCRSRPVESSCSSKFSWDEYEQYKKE
UniProt Q02556: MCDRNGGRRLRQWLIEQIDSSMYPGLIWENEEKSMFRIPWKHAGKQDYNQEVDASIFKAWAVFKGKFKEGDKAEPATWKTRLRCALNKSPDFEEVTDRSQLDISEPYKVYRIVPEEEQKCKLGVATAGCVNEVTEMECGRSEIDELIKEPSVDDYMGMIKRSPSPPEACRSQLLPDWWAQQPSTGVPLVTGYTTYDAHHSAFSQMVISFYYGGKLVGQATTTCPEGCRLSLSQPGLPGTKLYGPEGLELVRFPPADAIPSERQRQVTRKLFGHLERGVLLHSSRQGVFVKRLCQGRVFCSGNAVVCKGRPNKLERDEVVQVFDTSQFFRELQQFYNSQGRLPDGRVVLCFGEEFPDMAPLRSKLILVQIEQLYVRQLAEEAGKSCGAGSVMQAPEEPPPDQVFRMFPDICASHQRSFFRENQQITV
UniProt Q7Z5L9: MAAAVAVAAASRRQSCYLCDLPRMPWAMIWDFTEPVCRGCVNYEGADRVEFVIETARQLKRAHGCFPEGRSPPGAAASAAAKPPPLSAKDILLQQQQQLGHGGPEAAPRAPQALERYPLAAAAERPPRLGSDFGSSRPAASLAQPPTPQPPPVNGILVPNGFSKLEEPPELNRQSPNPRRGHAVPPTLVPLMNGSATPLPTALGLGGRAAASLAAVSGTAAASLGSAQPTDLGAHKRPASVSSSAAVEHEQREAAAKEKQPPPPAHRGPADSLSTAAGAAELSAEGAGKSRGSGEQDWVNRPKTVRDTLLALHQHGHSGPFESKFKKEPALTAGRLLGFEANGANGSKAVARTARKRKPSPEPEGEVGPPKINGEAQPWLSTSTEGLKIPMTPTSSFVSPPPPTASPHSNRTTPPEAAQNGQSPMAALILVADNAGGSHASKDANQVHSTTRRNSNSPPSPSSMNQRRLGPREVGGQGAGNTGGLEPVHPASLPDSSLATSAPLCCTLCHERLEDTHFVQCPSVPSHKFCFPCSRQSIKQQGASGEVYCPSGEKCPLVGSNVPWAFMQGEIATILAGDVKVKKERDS

Compound: CC1Cc2ccccc2N1C(=O)C1CCCN(C1)C(=O)CCl (mixture of isomers) [TRIM25 ligand 11 (diastereomer mixture)]
Experiment: probe-labelled cysteine peptide fold change vs DMSO (competition) (log2 fold change); higher = less target engagement (more negative = stronger competition)
Conditions: THP-1, incubation time: 4 h
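Note: competitive chemoproteomic profiling in live THP-1 cells with an iodoacetamide desthiobiotin (IA-DTB) probe, comparing probe-labelled peptide intensities in compound-treated cells against DMSO-treated controls.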

Target	probe-labelled cysteine peptide fold change (10 µM)	probe-labelled cysteine peptide fold change (50 µM)
IPO4_Q8TEX9_459_ACYALENFVENLGPK (UniProt Q8TEX9)	0.062	0.238
INTS6_Q9UL03_211_SYSVCSPR (UniProt Q9UL03)	0.0134	-0.135
ITGB2_P05107_420_VTATECIQEQSFVIR (UniProt P05107)	0.0878	0.0923
IPO4_Q8TEX9_400_LLPPLLQIVCK (UniProt Q8TEX9)	-0.0729	0.13
INTS11_Q5TA45_19_SCILVSIAGK (UniProt Q5TA45)	0.0151	0.106
IPO5_O00410_1057_IFSIIAEGEMHEAIKHEDPCAK (UniProt O00410)	-0.159	-0.272
IPO7_O95373_484_ACWVLHYFCEVK (UniProt O95373)	0.131	0.392
IPO5_O00410_110_VCDIAAELAR (UniProt O00410)	0.168	0.0478
IPO5_O00410_1057_IFSIIAEGEMHEAIKHEDPCAKR (UniProt O00410)	-0.439	-0.361
IPO5_O00410_687_STACQMLVCYAK (UniProt O00410)	-0.0159	-0.01
ITGA5_P08648_921_CELGPLHQQESQSLQLHFR (UniProt P08648)	-0.0379	-0.0165
INTS1_Q8N201_1433_SHFLACPLLR (UniProt Q8N201)	-0.0305	0.0859
IPO11_Q9UI26_894_DCMLMSHLEEPKVTEDEEPPTEQDKR (UniProt Q9UI26)	-0.125	-0.395
IPO8_O15397_827_IQLPHNPGPITVQFINQWMNDTDCFLGHHDR (UniProt O15397)	0.0633	0.252
IPO5_O00410_266_LCGDTSLNNMQR (UniProt O00410)	-0.0465	0.182
IPO4_Q8TEX9_269_ILCCLTFLVK (UniProt Q8TEX9)	-0.308	0.145
IQGAP2_Q13576_1183_EACNVPEPEEK (UniProt Q13576)	-0.149	-0.119
ITGB2_P05107_286_CHLEDNLYK (UniProt P05107)	0.101	0.0992
ISL2_Q96A47_30_KKPGTAMCVGCGSQIHDQFILR (UniProt Q96A47)	-0.0558	0.0905
INSR_P06213_899_RYGDEELHLCVSR (UniProt P06213)	-0.0393	0.125
ITGAV_P06756_172_TVEYAPCR (UniProt P06756)	-0.0412	0.00849
ITGB1_P05556_636_FQGQTCEMCQTCLGVCAEHK (UniProt P05556)	-0.103	0.0466

Target	probe-labelled cysteine peptide fold change (10 µM)	probe-labelled cysteine peptide fold change (50 µM)
INSR_P06213_153_NNELCYLATIDWSR (UniProt P06213)	0.00884	0.0408
IPO7_O95373_757_GIDQCIPLFVEAALER (UniProt O95373)	0.0116	-0.524
IRAK1_P51617_608_SWHLTPSCPLDPAPLR (UniProt P51617)	0.202	-0.117
IQGAP3_Q86VI3_1254_ACQVPEPEER (UniProt Q86VI3)	-0.105	0.0275
IPO4_Q8TEX9_95_ETEHCVSLSLAQLSATIFRK (UniProt Q8TEX9)	-0.09	0.0344
INPP5D_Q92835_1088_SFTCSSSAEGR (UniProt Q92835)	-0.137	-0.261
INTS9_Q9NV88_5+14_LYCLSGHPTLPCNVLK (UniProt Q9NV88)	-0.0225	0.0142
IQGAP1_P46940_57_WMEACLGEDLPPTTELEEGLR (UniProt P46940)	-0.268	0.0472
INPPL1_O15357_405_EAFCQLLQLMK (UniProt O15357)	-0.09	-0.0221
IRAK3_Q9Y616_5_AGNCGAR (UniProt Q9Y616)	-0.167	-0.347
INTS12_Q96CB8_209_LVWYCAR (UniProt Q96CB8)	-0.208	-0.0997
INTS3_Q68E01_80_EANDALNAYVCK (UniProt Q68E01)	-0.0752	-0.0832
ITGB2_P05107_62_CDTRPQLLMR (UniProt P05107)	-0.083	-0.121
INTS13_Q9NVM9_556_VLECLMACR (UniProt Q9NVM9)	-0.0972	0.0314
INTS11_Q5TA45_354_NMVIMPGYCVQGTVGHK (UniProt Q5TA45)	-0.0363	-0.099
IRF8_Q02556_138_LGVATAGCVNEVTEMECGR (UniProt Q02556)	0.139	0.00955
INTS5_Q6P9B9_58_CGLLLLR (UniProt Q6P9B9)	-0.00715	0.145
INSR_P06213_462_LCLSEIHK (UniProt P06213)	0.0282	0.0252
IREB2_P48200_467_SDFQACLNEK (UniProt P48200)	-0.0124	-0.139
IRF8_Q02556_223_LVGQATTTCPEGCR (UniProt Q02556)	0.201	0.203
IQGAP1_P46940_494_QLSSSVTGLTNIEEENCQR (UniProt P46940)	0.0951	0.0264
IPO5_O00410_180_MLVQCMQDQEHPSIR (UniProt O00410)	-0.0156	-0.118

Target	probe-labelled cysteine peptide fold change (10 µM)	probe-labelled cysteine peptide fold change (50 µM)
IRF2BP2_Q7Z5L9_19_RQSCYLCDLPR (UniProt Q7Z5L9)	-0.0676	0.0609
INTS1_Q8N201_867_LGHLLCR (UniProt Q8N201)	0.0521	0.031
INTS10_Q9NVR2_169_RFPETVVQHGVGLGEALLEAETIEEQESPVNCFR (UniProt Q9NVR2)	0.0065	-0.199
IPO4_Q8TEX9_870_QGCTVAEK (UniProt Q8TEX9)	-0.109	-0.0581
IRF2BP1_Q8IU81_546_AQGPAGEVYCPSGDK (UniProt Q8IU81)	-0.121	-0.00493
ITGA5_P08648_156_AHGSSILACAPLYSWR (UniProt P08648)	0.0776	0.0793
INTS5_Q6P9B9_183_VPHATGALNELLQLWMGCR (UniProt Q6P9B9)	-0.126	-0.411
INTS13_Q9NVM9_120_ADPECCSILHGLVAAVETLCK (UniProt Q9NVM9)	0.0697	-0.0596
INTS11_Q5TA45_542_DHCVQHLPDGSVTVESVLLQAAAPSEDPGTK (UniProt Q5TA45)	0.0652	0.0512
INTS13_Q9NVM9_202_CELVLIHTYPVGEDSLVSDR (UniProt Q9NVM9)	0.145	0.107
INPP5D_Q92835_4_VPCWNHGNITR (UniProt Q92835)	-0.0602	-0.145
ISG15_P05161_78_LAVHPSGVALQDRVPLASQGLGPGSTVLLVVDKCDEPLSILVR (UniProt P05161)	-0.0389	-0.393
ITGAX_P20702_848+863_SLHLTCDSAPVGSQGTWSTSCR (UniProt P20702)	0.132	-0.0468
ITGB2_P05107_670_DSEGCWVAYTLEQQDGMDR (UniProt P05107)	0.401	0.18
IPMK_Q8NFU5_373_VFYHLPTGCQEIAEVEVR (UniProt Q8NFU5)	0.0303	-0.136
INPPL1_O15357_926_KPAFTEASCPLSR (UniProt O15357)	-0.133	-0.273
IPO7_O95373_504_CLIDDR (UniProt O95373)	0.0495	0.164
ITGB2_P05107_590_RVECSGR (UniProt P05107)	0.262	0.414
INTS13_Q9NVM9_406_SILEDPPSISEGCGGR (UniProt Q9NVM9)	0.0099	-0.194
INSR_P06213_196_TNCPATVINGQFVER (UniProt P06213)	0.0441	0.0234
IP6K1_Q92551_221_YPCVLDLK (UniProt Q92551)	-0.0788	0.0174
INTS10_Q9NVR2_387_TMSSDDEDCSAK (UniProt Q9NVR2)	-0.158	-0.288

Target	probe-labelled cysteine peptide fold change (10 µM)	probe-labelled cysteine peptide fold change (50 µM)
INTS14_Q96SY0_193_LIDLNNGEGQIFTIDGPLCLK (UniProt Q96SY0)	-0.00669	0.031
INTS8_Q75QN2_295_ELIAEIGSLSLHCTIDEK (UniProt Q75QN2)	0.322	-0.0734
ITGB2_P05107_445_ALGFTDIVTVQVLPQCECR (UniProt P05107)	0.102	0.099
IPO11_Q9UI26_252_QFLECSR (UniProt Q9UI26)	0.00466	0.186
IPO8_O15397_478_SCWVLHAFSSLK (UniProt O15397)	0.0123	0.0629
ITGB2_P05107_386_VTYDSFCSNGVTHR (UniProt P05107)	0.0533	-0.0395
IPO5_O00410_915_YAEYFLRPMLQYVCDNSPEVR (UniProt O00410)	0.119	-0.0734
ITGB2_P05107_445+447_ALGFTDIVTVQVLPQCECR (UniProt P05107)	0.0136	0.122
IRAK3_Q9Y616_399_RGLDSCLSFLDK (UniProt Q9Y616)	0.0985	0.142
INTS2_Q9H0H0_272_GMVVEECHLPGLGVALTLDHTK (UniProt Q9H0H0)	0.155	0.155
IPO5_O00410_733_VAAAESMPLLLECAR (UniProt O00410)	-0.0623	-0.134
INTS9_Q9NV88_14_LYCLSGHPTLPCNVLK (UniProt Q9NV88)	0.071	0.183
IRF2BP2_Q7Z5L9_37_MPWAMIWDFTEPVCR (UniProt Q7Z5L9)	0.189	0.103
ITGB2_P05107_36_ECIESGPGCTWCQK (UniProt P05107)	0.261	0.0865
INTS3_Q68E01_866_MVLSRPCHPDDQFTTSILR (UniProt Q68E01)	0.0118	-0.0418
IRS2_Q9Y4H2_248_CGHSDSFFFIEVGR (UniProt Q9Y4H2)	-0.0929	-0.0441
IRF2BP2_Q7Z5L9_65_RAHGCFPEGR (UniProt Q7Z5L9)	-0.103	-0.0555
IRF5_Q13568_272_ALTISNPHGCR (UniProt Q13568)	0.148	0.185
ISG20L2_Q9H9L3_184_MVAIDCEMVGTGPK (UniProt Q9H9L3)	-0.00824	0.164
